Percent effect of library compounds

The chains behind the UniProt entries cited, without tags or fusion partners. Residues count along the entry.
UniProt P9WPC5, whole entry: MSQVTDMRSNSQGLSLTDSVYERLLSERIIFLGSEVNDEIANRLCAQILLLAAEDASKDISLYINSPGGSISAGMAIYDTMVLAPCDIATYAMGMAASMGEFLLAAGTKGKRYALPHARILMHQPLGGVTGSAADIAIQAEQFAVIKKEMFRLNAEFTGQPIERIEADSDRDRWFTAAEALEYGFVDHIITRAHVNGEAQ
UniProt P9WPC3, whole entry partner: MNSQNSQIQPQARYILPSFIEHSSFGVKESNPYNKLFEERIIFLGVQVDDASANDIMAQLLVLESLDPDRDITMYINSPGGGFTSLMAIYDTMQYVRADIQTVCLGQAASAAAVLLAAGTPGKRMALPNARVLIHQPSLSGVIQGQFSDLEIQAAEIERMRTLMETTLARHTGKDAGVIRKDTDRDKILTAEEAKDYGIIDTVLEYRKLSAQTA
UniProt Q4DA54, 1-478: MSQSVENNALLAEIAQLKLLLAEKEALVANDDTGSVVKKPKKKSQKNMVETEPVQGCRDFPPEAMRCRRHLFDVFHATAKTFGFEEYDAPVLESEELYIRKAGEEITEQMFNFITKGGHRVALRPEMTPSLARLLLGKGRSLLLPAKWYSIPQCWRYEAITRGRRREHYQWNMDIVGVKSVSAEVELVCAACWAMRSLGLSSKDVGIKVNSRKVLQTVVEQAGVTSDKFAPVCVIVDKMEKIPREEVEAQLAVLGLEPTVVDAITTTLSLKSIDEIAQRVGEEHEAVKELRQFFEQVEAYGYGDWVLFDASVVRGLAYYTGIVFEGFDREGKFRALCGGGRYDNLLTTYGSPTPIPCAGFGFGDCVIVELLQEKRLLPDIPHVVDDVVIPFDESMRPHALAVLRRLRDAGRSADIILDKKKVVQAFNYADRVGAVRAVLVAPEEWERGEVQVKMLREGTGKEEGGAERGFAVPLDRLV
UniProt P9WNZ1, whole entry: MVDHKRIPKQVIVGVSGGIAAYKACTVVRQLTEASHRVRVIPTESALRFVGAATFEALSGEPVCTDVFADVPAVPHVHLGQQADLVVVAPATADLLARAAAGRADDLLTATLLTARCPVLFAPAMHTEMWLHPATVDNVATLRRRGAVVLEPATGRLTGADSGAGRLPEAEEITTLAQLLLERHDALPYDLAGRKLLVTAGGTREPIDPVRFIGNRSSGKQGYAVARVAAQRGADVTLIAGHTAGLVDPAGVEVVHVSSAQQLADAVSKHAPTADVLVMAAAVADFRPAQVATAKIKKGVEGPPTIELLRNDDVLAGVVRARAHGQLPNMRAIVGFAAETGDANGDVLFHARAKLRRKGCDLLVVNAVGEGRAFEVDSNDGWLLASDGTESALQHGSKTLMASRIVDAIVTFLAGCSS

ClpP1P2: 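ClpP1P2, Mycobacterium tuberculosis (UniProt P9WPC5 and UniProt P9WPC3). Protease assay of ClpP1P2, read by the AMC dye that it sets free. Tested at 50 µM. Higher reads as stronger inhibition, judged from the few compounds that gave an IC50. Most other retested compounds had strongly negative values. Of about 69,000 compounds tested this way, about 10 (0.015%) reached 50% or more in at least one test.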
Toxoplasma: 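Assay of Toxoplasma gondii numbers, read through their beta-galactosidase reporter with a colour substrate. Compounds at 10 µM. The record gives no direction; the compounds picked for IC50 retests had high values, so higher reads as fewer parasites. Of about 67,000 compounds tested this way, about 260 (0.38%) reached 50% or more in at least one test.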
Leishmania in macrophages: 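Cell assay of Leishmania donovani living inside macrophages; the read-out is not stated. Compounds at 30 µM. Direction is inferred from retests: higher values go with stronger inhibition. Of about 69,000 compounds tested this way, about 1,000 (1.5%) reached 50% or more in at least one test.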
TcHisRS: 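Enzyme assay of histidyl-tRNA synthetase; the read-out is not stated. Target: Histidine-tRNA ligase, Trypanosoma cruzi CL Brener (UniProt Q4DA54). Compounds at 30 µM. Direction is inferred from retests: higher values go with stronger inhibition. About 69,000 compounds were tested under these conditions; 0.045% (about 31) showed 50% or more at least once.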
CoaBC: 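Coenzyme A biosynthesis protein CoaBC, Mycobacterium tuberculosis (UniProt P9WNZ1). Enzyme assay of CoaBC with a phosphate dye (Biomol Green) read at 650 nm. Tested at 30 µM. Higher reads as stronger inhibition, judged from the few compounds that gave an IC50. Most strong results did not repeat in a second test. About 67,000 compounds were tested under these conditions; 0.06% (about 40) showed 50% or more at least once.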

The filed quantity is “Percent Effect” (%). The controls that fix the scale are not given in the record; negative values are as filed. This is an unselected part of the compounds tested. Two or more numbers in one place are separate tests of the same structure; such repeats can differ widely.

For O=C(NCc1nnc2n1CCC2)N(Cc1ccc(F)cc1)C1CC1 the result was ClpP1P2: -16.27%; Toxoplasma: 3.919%; Leishmania in macrophages: 19.7%; TcHisRS: 1.97%; CoaBC: 3.526%. For Cc1cc(C(F)(F)F)nn1CCCNC(=O)C1CCC1 the result was ClpP1P2: 0.2915%; Toxoplasma: 13.39%; Leishmania in macrophages: 21.6%; TcHisRS: 5.699%; CoaBC: -16.15%. With Cc1cnc(C(=O)N2CCCC(c3nccn3Cc3cscn3)C2)cn1 (stereo unspecified) the screen gave ClpP1P2: -3.991%; Toxoplasma: -12.33%; Leishmania in macrophages: 6.44%; TcHisRS: 1.508%; CoaBC: -3.016%. With Cc1cc(NC(=O)Cn2ccc(-c3ccc4c(c3)OCO4)n2)n(C)n1 the screen gave ClpP1P2: 16.08%; Toxoplasma: 24.83%; Leishmania in macrophages: 43.12%; TcHisRS: 6.931%; CoaBC: 1.928%. Result for CCn1nc(C)c(S(=O)(=O)Nc2ccccc2C(=O)OC)c1C was ClpP1P2: -3.836%; Toxoplasma: -15.34%; Leishmania in macrophages: -17.54%; TcHisRS: 0%; CoaBC: -2.857%. Cc1ccc(F)c2c1N(C(=O)Cc1c(C)nn(C)c1C)CCC2 gave ClpP1P2: 0.2481%; Toxoplasma: 0.3386%; Leishmania in macrophages: 18.97%; TcHisRS: 4.902%; CoaBC: -0.638%. For COCCN1CCN(C(=O)c2ccc(COC)o2)[C@H]2CS(=O)(=O)C[C@H]21 the result was ClpP1P2: -12.37%; TcHisRS: -0.5435%; CoaBC: 10.33%.

Cc1nccn1C1CCCN(C(=O)C2=NN(C)C(=O)CC2)C1 (stereo unspecified) read ClpP1P2: 12.65%; Toxoplasma: -4.423%; Leishmania in macrophages: -16.49%; TcHisRS: 2.256%; CoaBC: 1.305%. For Cn1cc(C[C@H]2[C@H](N3CCOCC3)CCN2c2ncc(F)cn2)cn1 the result was ClpP1P2: -7.914%; TcHisRS: 3.922%; CoaBC: 1.463%. CC(=O)N1CCN(CCNc2snc(Cl)c2C#N)CC1 read ClpP1P2: 2.29%; Toxoplasma: -8.857%; Leishmania in macrophages: -6.258%; TcHisRS: -2.105%; CoaBC: 7.968%. Result for Cc1cc(N2CCC(O)(CN(C)C)C2)c2cc3c(cc2n1)OCO3 (stereo unspecified) was ClpP1P2: -7.941%; Toxoplasma: 8.915%; Leishmania in macrophages: -1.24%; TcHisRS: 0%; CoaBC: 1.022%. Result for Cc1ccc([C@@H]2CN(S(=O)(=O)N3CCC(C)CC3)C[C@H]2N(C)C)cc1 was ClpP1P2: 2.601%; Toxoplasma: -15.94%; Leishmania in macrophages: 5.758%; TcHisRS: 0%; CoaBC: 11.16%. Result for COc1ccsc1C(=O)N1CCCC(n2nc(C)cc2C)C1 (stereo unspecified) was ClpP1P2: -6.762%; Toxoplasma: -25.03%; Leishmania in macrophages: 18.87%; TcHisRS: 4%; CoaBC: -3.412%. With CCN(Cc1cnc(NCc2ccccc2)nc1)C1CCS(=O)(=O)C1 (stereo unspecified) the screen gave ClpP1P2: 1.161%; Toxoplasma: -4.93%; Leishmania in macrophages: 7.995%; TcHisRS: 7.778%; CoaBC: 5.462%.

With CCOC(=O)c1nc(COc2c(C)occc2=O)no1 the screen gave ClpP1P2: 5.009%; Toxoplasma: 15.47%; Leishmania in macrophages: 16.04%; TcHisRS: 10%; CoaBC: 2.663%. With Cn1cc(N2C[C@@H]3CN(CC4CCOCC4)C[C@@H]3C2=O)cn1 the screen gave ClpP1P2: -1.868%; TcHisRS: 6.897%; CoaBC: -1.844%. Result for COCCNc1c(C#N)c2c(c3nncn13)CN(C)CC2 was ClpP1P2: -9.654%; Toxoplasma: -0.974%; Leishmania in macrophages: -4.606% and 23.08%; TcHisRS: 4.878%; CoaBC: 4.557%. CC(=O)N1C[C@@H]2CC[C@H](C1)N(S(=O)(=O)c1ccc(C#N)cc1Cl)C2 read ClpP1P2: -9.113%; TcHisRS: 0.4292%; CoaBC: 8.493%. For Cn1nc(CN2CCCC2)c2c1CN(c1cnccn1)CC2 the result was ClpP1P2: -13.39%; TcHisRS: -5.525%; CoaBC: 2.475%.

The last 2 entries again:

CC(=O)N1C[C@@H]2CC[C@H](C1)N(S(=O)(=O)c1ccc(C#N)cc1Cl)C2 read ClpP1P2: -9.113%; TcHisRS: 0.4292%; CoaBC: 8.493%.
Cn1nc(CN2CCCC2)c2c1CN(c1cnccn1)CC2 read ClpP1P2: -13.39%; TcHisRS: -5.525%; CoaBC: 2.475%.

From ChEMBL document CHEMBL3988442, “University of Dundee, Small-Polar-MMV Screening Library” (2021).